# The supplement of paper PMC4604168 (melanoma cell lines)
# The other results are listed elsewhere or left out. Single values are uncertain, as repeats are few or missing.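 Imaging used 1,536-well plates; nuclei positive for cleaved PARP by antibody were divided by total DNA-stained nuclei to yield the apoptosis fraction. Doses for screening kept most cells viable, and cell lines differ markedly in resting and induced cleaved-PARP levels.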
# System: WM115
# Experiment: cleaved PARP positive nuclei fraction relative to DMSO control; melanoma cells; higher = more apoptosis
# Settings: library dose: low library concentration; 72 h
row,SMILES,cleaved PARP positive nuclei fraction [%]
1,"NC1(c2ccc(-c3nc4ccn5c(=O)[nH]nc5c4cc3-c3ccccc3)cc2)CCC1 + O=C(Oc1ccc([N+](=O)[O-])cc1)N1CCC(C(O)(c2ccc3c(c2)OCO3)c2ccc3c(c2)OCO3)CC1 [JZL184] (first compound 0.4 µM, partner dose 1 µM)",111
2,"COc1ccc(C2=N[C@@H](c3ccc(Cl)cc3)[C@@H](c3ccc(Cl)cc3)N2C(=O)N2CCNC(=O)C2)c(OC(C)C)c1 [Nutlin-3] + C/C(O)=C(\C#N)C(=O)Nc1cc(Br)ccc1Br [LFM-A13] (first compound 0.1 µM, partner dose 2 µM)",142
3,"O=C(/C=C/c1cccnc1)NCCCCC1CCN(C(=O)c2ccccc2)CC1 + Cc1cc(SCc2sc(-c3ccc(C(F)(F)F)c(F)c3)nc2C)ccc1OCC(=O)O [GW0742] (first compound 0.01 µM, partner dose 2 µM)",106
4,"C[As](C)SC[C@H](NC(=O)CC[C@H](N)C(=O)O)C(=O)NCC(=O)O [Darinaparsin] + NC(=O)Nc1cc(-c2cccc(F)c2)sc1C(=O)N[C@H]1CCCNC1 [AZD7762] (first compound 0.4 µM, partner dose 0.02 µM)",96.9
5,"C[As](C)SC[C@H](NC(=O)CC[C@H](N)C(=O)O)C(=O)NCC(=O)O [Darinaparsin] + C[C@@H]1CCN(C(=O)CC#N)C[C@@H]1N(C)c1ncnc2[nH]ccc12 [CP690550] (first compound 0.4 µM, partner dose 1 µM)",135
6,"C[C@]1(O)C[C@@H](c2nc(-c3ccc4ccc(-c5ccccc5)nc4c3)c3c(N)nccn32)C1 + C/C(O)=C(\C#N)C(=O)Nc1cc(Br)ccc1Br [LFM-A13] (first compound 0.4 µM, partner dose 2 µM)",122
7,"N.N.[Cl][Pt][Cl] [cisplatin] + Cc1cc([N+](=O)[O-])ccc1NS(=O)(=O)c1cc(Cl)ccc1Cl [FH535] (first compound 1.6 µM, partner dose 1 µM)",150
8,"Cn1cc(C2=C(c3cn(C4CCN(Cc5ccccn5)CC4)c4ccccc34)C(=O)NC2=O)c2ccccc21 [Enzastaurin] + O=C1NC(=O)/C(=C/c2ccc(-c3ccc(F)cc3O)o2)S1 [AS252424] (first compound 0.8 µM, partner dose 1 µM)",131
9,"C=CCNC1=C2C[C@@H](C)C[C@H](OC)[C@H](O)[C@@H](C)/C=C(\C)[C@H](OC(N)=O)[C@@H](OC)/C=C\C=C(/C)C(=O)NC(=CC1=O)C2=O [Tanespimycin] + Cc1cc(SCc2sc(-c3ccc(C(F)(F)F)c(F)c3)nc2C)ccc1OCC(=O)O [GW0742] (first compound 0.002 µM, partner dose 2 µM)",101
10,"O=C(O)c1ccc2c(c1)nc(Nc1cccc(Cl)c1)c1ccncc12 + O=C(Oc1ccc([N+](=O)[O-])cc1)N1CCC(C(O)(c2ccc3c(c2)OCO3)c2ccc3c(c2)OCO3)CC1 [JZL184] (first compound 0.4 µM, partner dose 1 µM)",137
11,"N.N.[Cl][Pt][Cl] [cisplatin] + Cc1cc(N2CCOCC2)cc2[nH]c(-c3c(NC[C@@H](O)c4cccc(Cl)c4)cc[nH]c3=O)nc12 [BMS536924] (first compound 1.6 µM, partner dose 0.2 µM)",110
12,"CC1(C)CCC(c2ccc(Cl)cc2)=C(CN2CCN(c3ccc(C(=O)NS(=O)(=O)c4ccc(N[C@H](CCN5CCOCC5)CSc5ccccc5)c(S(=O)(=O)C(F)(F)F)c4)cc3)CC2)C1 + O=C(Oc1ccc([N+](=O)[O-])cc1)N1CCC(C(O)(c2ccc3c(c2)OCO3)c2ccc3c(c2)OCO3)CC1 [JZL184] (first compound 0.4 µM, partner dose 1 µM)",463
13,"Cc1cc(Nc2cc(N3CCN(C)CC3)nc(/C=C/c3ccccc3)n2)n[nH]1 + C/C(O)=C(\C#N)C(=O)Nc1cc(Br)ccc1Br [LFM-A13] (first compound 0.04 µM, partner dose 2 µM)",144
14,"N.N.[Cl][Pt][Cl] [cisplatin] + OCCn1cc(-c2cnc3nnn(Cc4ccc5ncccc5c4)c3n2)cn1 [PF04217903] (first compound 1.6 µM, partner dose 1 µM)",67.6
15,"Cn1cc(C2=C(c3cn(C4CCN(Cc5ccccn5)CC4)c4ccccc34)C(=O)NC2=O)c2ccccc21 [Enzastaurin] + COc1ccc(COc2ccc(Cc3cnc(N)nc3N)cc2OC)cc1 [GW2580] (first compound 0.8 µM, partner dose 1 µM)",174
16,"Cn1cc(C2=C(c3cn(C4CCN(Cc5ccccn5)CC4)c4ccccc34)C(=O)NC2=O)c2ccccc21 [Enzastaurin] + c1cc(-c2cnn3cc(-c4ccc(OCCN5CCCCC5)cc4)cnc23)ccn1 [Dorsomorphin] (first compound 0.8 µM, partner dose 0.4 µM)",47.9
17,"C[As](C)SC[C@H](NC(=O)CC[C@H](N)C(=O)O)C(=O)NCC(=O)O [Darinaparsin] + C=CCn1c(=O)c2cnc(Nc3ccc(N4CCN(C)CC4)cc3)nc2n1-c1cccc(C(C)(C)O)n1 [MK1775] (first compound 0.4 µM, partner dose 0.02 µM)",247
18,"Cn1cc(C2=C(c3cn(C4CCN(Cc5ccccn5)CC4)c4ccccc34)C(=O)NC2=O)c2ccccc21 [Enzastaurin] + OCCn1cc(-c2cnc3nnn(Cc4ccc5ncccc5c4)c3n2)cn1 [PF04217903] (first compound 0.8 µM, partner dose 1 µM)",147
19,"N.N.[Cl][Pt][Cl] [cisplatin] + CN(NC(=O)CC(=O)NN(C)C(=S)c1ccccc1)C(=S)c1ccccc1 [STA4783] (first compound 1.6 µM, partner dose 0.006 µM)",108
20,"C=C(c1ccc(C(=O)O)cc1)c1cc2c(cc1C)C(C)(C)CCC2(C)C [Bexarotene] + O=C(Oc1ccc([N+](=O)[O-])cc1)N1CCC(C(O)(c2ccc3c(c2)OCO3)c2ccc3c(c2)OCO3)CC1 [JZL184] (first compound 2 µM, partner dose 1 µM)",107
21,"Cn1sc(=O)n(Cc2ccccc2)c1=O + O=C(Oc1ccc([N+](=O)[O-])cc1)N1CCC(C(O)(c2ccc3c(c2)OCO3)c2ccc3c(c2)OCO3)CC1 [JZL184] (first compound 0.4 µM, partner dose 1 µM)",188
22,"C[As](C)SC[C@H](NC(=O)CC[C@H](N)C(=O)O)C(=O)NCC(=O)O [Darinaparsin] + COc1cc(Nc2ncc(F)c(Nc3ccc4c(n3)NC(=O)C(C)(C)O4)n2)cc(OC)c1OC [Tamatinib] (first compound 0.4 µM, partner dose 0.4 µM)",352
23,"CNC(=O)c1cc(Oc2ccc(NC(=O)Nc3ccc(Cl)c(C(F)(F)F)c3)cc2)ccn1 [sorafenib] + Cc1cc(SCc2sc(-c3ccc(C(F)(F)F)c(F)c3)nc2C)ccc1OCC(=O)O [GW0742] (first compound 0.4 µM, partner dose 2 µM)",118
24,"Cn1cc(C2=C(c3cn(C4CCN(Cc5ccccn5)CC4)c4ccccc34)C(=O)NC2=O)c2ccccc21 [Enzastaurin] + COC(=O)c1sccc1S(=O)(=O)Nc1ccc(Nc2ccccc2)cc1OC [GSK0660] (first compound 0.8 µM, partner dose 1 µM)",173
25,"COc1cc([C@@H]2c3cc4c(cc3[C@@H](O[C@@H]3O[C@@H]5CO[C@@H](C)O[C@H]5[C@H](O)[C@H]3O)[C@H]3COC(=O)[C@H]23)OCO4)cc(OC)c1O [etoposide] + C/C(O)=C(\C#N)C(=O)Nc1cc(Br)ccc1Br [LFM-A13] (first compound 0.02 µM, partner dose 2 µM)",175
26,"Cn1cnc2c(F)c(Nc3ccc(Br)cc3Cl)c(C(=O)NOCCO)cc21 [selumetinib] + O=C(Oc1ccc([N+](=O)[O-])cc1)N1CCC(C(O)(c2ccc3c(c2)OCO3)c2ccc3c(c2)OCO3)CC1 [JZL184] (first compound 0.015 µM, partner dose 1 µM)",171
27,"Nc1ncn([C@H]2C[C@H](O)[C@@H](CO)O2)c(=O)n1 [decitabine] + O=C(Oc1ccc([N+](=O)[O-])cc1)N1CCC(C(O)(c2ccc3c(c2)OCO3)c2ccc3c(c2)OCO3)CC1 [JZL184] (first compound 0.1 µM, partner dose 1 µM)",180
28,"C[As](C)SC[C@H](NC(=O)CC[C@H](N)C(=O)O)C(=O)NCC(=O)O [Darinaparsin] + O=C(O)c1ccc(-c2c[nH]c3ncc(-c4ccccc4)cc23)cc1C1CCCC1 [GSK650394] (first compound 0.4 µM, partner dose 0.16 µM)",150
29,"O=C(Nc1cc(C(F)(F)F)cc(C(F)(F)F)c1)c1cc(Cl)ccc1O + O=C(Oc1ccc([N+](=O)[O-])cc1)N1CCC(C(O)(c2ccc3c(c2)OCO3)c2ccc3c(c2)OCO3)CC1 [JZL184] (first compound 0.016 µM, partner dose 1 µM)",132
30,"Cn1cc(C2=C(c3cn(C4CCN(Cc5ccccn5)CC4)c4ccccc34)C(=O)NC2=O)c2ccccc21 [Enzastaurin] + O=C(Oc1ccc([N+](=O)[O-])cc1)N1CCC(C(O)(c2ccc3c(c2)OCO3)c2ccc3c(c2)OCO3)CC1 [JZL184] (first compound 0.8 µM, partner dose 1 µM)",124

# Individual results from above.
# cleaved PARP positive nuclei fraction [%], C[As](C)SC[C@H](NC(=O)CC[C@H](N)C(=O)O)C(=O)NCC(=O)O [Darinaparsin] + C[C@@H]1CCN(C(=O)CC#N)C[C@@H]1N(C)c1ncnc2[nH]ccc12 [CP690550] (first compound 0.4 µM, partner dose 1 µM) reads 135
# cleaved PARP positive nuclei fraction [%], C=CCNC1=C2C[C@@H](C)C[C@H](OC)[C@H](O)[C@@H](C)/C=C(\C)[C@H](OC(N)=O)[C@@H](OC)/C=C\C=C(/C)C(=O)NC(=CC1=O)C2=O [Tanespimycin] + Cc1cc(SCc2sc(-c3ccc(C(F)(F)F)c(F)c3)nc2C)ccc1OCC(=O)O [GW0742] (first compound 0.002 µM, partner dose 2 µM) reads 101
